According to PubChem BioAssay AID1508600 (Functional Genomics Laboratory (NCATS/FGL), 2020):
The whole screen tested about 53,000 sequences, of which about 3,700 (7%) were called active.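 How the source made its calls: active means gene knockdowns whose robust z-score for IL-1 alpha signal is at least 2 or at most -2, so actives lie on both sides; inactive means the rest.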 This is one part of the list.

Assay: Components of the Cytosolic LPS Sensing Pathway: Gene Identification via Genome-wide siRNA Screen;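 further: robust z of the log signal after scaling to non-targeting control siRNA wells of the plate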
Settings: RAW264.7 macrophages, IL-1a HTRF, actives lie on both sides, screened at 100 nM (by protocol), cells primed 5 h with Pam3CSK4 first
Procedure, shortened: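 Cells (RAW264.7, 1×10^4 per well) were transfected with siRNA at 100 nM and cultured 48h at 37 degrees C. Pam3CSK4 was added for 5 hours; LipidA transfection followed for 24 hour. IL-1a was then measured by HTRF.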

Sequence	z-score
GGUCUCAAAGAAGAGGAGUTT against Als2cl	inactive: 1.61
GGCCAGAAUAUCAUCGUCATT against Rbks	inactive: -0.163
GGCGGAAGUGUUAGACAUGTT against Art3	inactive: -0.0617
GGAGAAAAAGAGAAGUAUUTT against Skint9	inactive: -0.874
GGAUGUUCAUCUAUUUCUUTT against Scgb1b2	inactive: -0.626
CCGAUUCAGGUAUUGCACGTT against Prkra	inactive: 1.06
GGAGAAAGCACUCAAUUUGTT against Dlgap4	inactive: -0.995
GGAACAUCAGGUGCAUGUGTT against Pkd1	inactive: -1.79
UCAGUGUGCUGUUUCUUUUTT against Olfr1359	inactive: -1.21
CCCUCUAGGUUCUUUAGCCTT against Sox7	inactive: -0.339
GGGCUAAAUUAAGCUUCUATT against Sowahd	inactive: -0.707
GGAAUUAACAUCUUCUUACTT against Muc4	inactive: 0.773
GCUGAUGCUCCAUUGAAUGTT against Prr27	inactive: 0.228
GGUCAACAACGAAUCCUUUTT against Rho	inactive: 0.349
GGAUCCAGAACUAAAAAUCTT against Pcdhga2	inactive: 0.193
GGUUUGCAUCUUCUUAUUCTT against Myd88	inactive: -1.73
GGUUUUUGAACAAAGGAGATT against Slc11a2	inactive: -0.243
CCUCUACGAUGACUGGAUGTT against Sh3bp1	inactive: 0.227
GGUAUUCCAAUAACUGUACTT against Fip1l1	inactive: -0.269
GGUGGAAUAUAGAAGUUUCTT against Arhgef28	inactive: 0.708
GCCAAACUAUCAGAGAUGGTT against Slc38a7	inactive: 0.0528
GGCAAGAAUAUGAAAAGCUTT against Hmmr	inactive: -0.974

At a glance, part of the list above:
Sequence	z-score
GGUUUUUGAACAAAGGAGATT against Slc11a2	inactive: -0.243
CCUCUACGAUGACUGGAUGTT against Sh3bp1	inactive: 0.227

Following part:

Sequence	z-score
CGCAAUCAUGAGCUUCGUCTT against Eci2	inactive: 0.137
GAAUAUUGCUCAGUGCAAGTT against Slurp1	inactive: 1.27
GCUGCUACGUGUUCAAGGUTT against Ctss	inactive: 0.00488
GGACUACCAUCGACCUUCATT against Nek2	inactive: 1.15
CCUGCCUAUGUCUAGGCCATT against Tspyl3	inactive: 0.589
GGACCUCCUCCCAAAGAUATT against Snrpb	active: -2.83
GGAAUGCUGAAGUAAAAAATT against Olfr1259	inactive: -0.808
GGGAACAGAAGUCAAGGCATT against Zbtb8os	inactive: 0.223
GGCCGUUUUUUGGCAUCGUTT against Acss1	inactive: -1.71
GGAAAGACAAAGAACUCUATT against Ssu72	inactive: -0.535
GGAAAGGACCACCUAAGUUTT against Pde6g	inactive: 0.0534
GGCUGAGAAGCAGACUUCCTT against Dclk3	inactive: 1.23
GGAGAUCAAGCCGCACAUGTT against Ccnd3	inactive: -0.479
GGAAAGAUGAGCUGUCCUATT against Csta2	inactive: -1.62
CCGUCUGAUAGCAAUCCGATT against Olfr632	inactive: -0.452
GCCUAUGCUCAACUUCUCGTT against Thap4	active: -3.31
GGACAAGUGUGUUGAUGGUTT against Strbp	inactive: -1.53
GGAACUCUGCCAAAGCUGUTT against Dffa	inactive: 0.125
CCUCAAGUGCGAAAACGUGTT against Tssk6	inactive: 0.444
GCCCUUUAUAUGACUUGAGTT against Kcnj2	inactive: -1.16
ACCCUCACCUCGCAUGACUTT against Pcbd2	inactive: -1.57
GGAAACAGCAAUCAAAUACTT against Dhx40	inactive: 0.483

5 records picked at random from the list so far, as already listed:
Sequence	z-score
GGAACAUCAGGUGCAUGUGTT against Pkd1	inactive: -1.79
GGAGAAAAAGAGAAGUAUUTT against Skint9	inactive: -0.874
GCUGCUACGUGUUCAAGGUTT against Ctss	inactive: 0.00488
GGUAUUCCAAUAACUGUACTT against Fip1l1	inactive: -0.269
GGCUGAGAAGCAGACUUCCTT against Dclk3	inactive: 1.23

(list continues)

Sequence	z-score
GGAGUCAAAAAAAAUGCAATT against Ribc1	inactive: 1.17
GCAGCUGAAAAUCGAGAACTT against Ccdc113	inactive: 1.2
CCAUUCACAUUGUGUCAAATT against Krtap26-1	inactive: -0.466
GAUGUUUGUUUUCAGUGCCTT against Olfr1330	inactive: -1.37
GGAUCCUUCGCUUUUAUCGTT against Nox1	inactive: -0.343
GCACUACUGCCCAUGAUUGTT against Agrn	inactive: 0.873
GGAUCCGCAUCUACAAGCUTT against 1700016K19Rik	inactive: 0.77
GGAAGAACCUGCCAAGAUCTT against Nckap5	inactive: -0.553
GGAUCAUUCAGCAUUGUAGTT against Dnm1l	inactive: 0.192
GGUGAACAACUGGUUUAUUTT against Meis3	inactive: 1.48
GGAGGAGUAUGUUAAGGCCTT against Myh6	inactive: 0.193
GUUUCAGCCUGAGUGACAATT against Fam122a	inactive: -0.119
GCAUCUGUGUCCAAGUACUTT against Jph1	inactive: 0.967
CGGUUGUCUUUAAAGAUUCTT against Gprin1	inactive: 0.634
GGUAAGAAAACUGACCUUATT against Abra	inactive: -0.787
GGUAUUUAAUGGAAGCCUGTT against Acp7	inactive: -0.537
GGCUAUGACUAGCUAGAAUTT against Hoxc5	inactive: -1.25
GGUCAACUAGCAGAAACCATT against Adgrv1	inactive: -1.84
GCUAGUUAGAACCUCGUUCTT against Cdk5	inactive: 1.78
GCUGACCGAUGUCAUCCUCTT against Itpk1	inactive: 1.12
GCACCAAGUCGUAUAAACATT against Sh3glb1	inactive: -0.391
GGCCUUUGUACAUGUUAGGTT against Cplx3	inactive: -0.31

Sequence	z-score
GCUGCUUAUCUAGACCAGCTT against D630044L22Rik	inactive: -0.175
GGAUAAAUGGUUCUAGAAATT against Zfp706	inactive: 1.52
GGGUUGUAGAUGCGUGGAATT against Plch1	inactive: 0.767
GGAAAAAGAAACCAGUGUUTT against Relb	inactive: -0.645
GGCAAUCAUGGACCUUAUUTT against Spata9	inactive: 1.8
GGCAGUAACUGUAAGCCUGTT against Paxx	inactive: 0.851
GGAGGCAGACUUCAGGGAUTT against P3h1	inactive: 0.199
GGAAGAUGCGCUUUCACAUTT against Gxylt2	inactive: -1.95
GCGGCAUUCGUCCAAAUUGTT against Trpt1	inactive: 0.938
GCUGUUGCACCAAUUAGUCTT against Dnajc5g	inactive: -0.577
GGAAUGUUGCCGUCAUGUUTT against Olfr568	inactive: -0.0596
GGCCAACUCUACCUGAACATT against Defb22	inactive: 0.44
GGACAAAGAAGUGAAGUGUTT against Slc26a1	inactive: -1.57
CCUACUACACUCAAGGGCATT against Pgc	inactive: 0.0394
GGAAGUCUCUAGGUUGUAUTT against Ddit4	inactive: 0.0871
GGAGGCAGGAGCAAAACAUTT against Olfr1111	inactive: -0.708
GGAUAUUUACCAUCAGUGATT against Prl7a1	inactive: -0.0908
GGACACAUGGUGUUGACCATT against Parp12	inactive: 0.0379
GGAGGAAUUACAAUAGCCATT against Tenm1	inactive: 1.57
GCCAAGAGACUCAAGUAGCTT against Nkg7	inactive: 0.479
GGAACAACUGAAAAUGAAGTT against Ppp1r21	inactive: -1.21
GGCCCAUAUCUGCUCUCAUTT against Ssc5d	active: -2.04

Sequence	z-score
GCUUCGCUCGCAUUCUUAUTT against Rsrc1	inactive: -0.299
UACAUUAGUAGAAUGGAGGTT against Mageb3	inactive: -0.598
GGUUUAAACUUUCAUGUGGTT against Dffb	inactive: 0.408
GGAUAGCUGCCAACACUACTT against Baiap2l2	inactive: -0.689
GCCAUUCUUCUCUUAGAAGTT against Npepl1	inactive: -1.07
GGCUCCAUAUGGAAUGCAGTT against Ets2	inactive: 0.571
GCUAUUGCCUUAGAUCCAUTT against Lrp6	inactive: 0.384
GGAAGAUGAGAAAAUUCCATT against Ccni	inactive: -0.44
GGACACUAUCCGUGCAUCUTT against Tsg101	inactive: -1.13
CGAAUAUGCAGGAUGGUAGTT against Dnaaf2	inactive: 0.36
GGUGCAGAAGAUGUGGAUGTT against Cldn1	inactive: 0.148
GGGAUAGGGUUCAAUUAGGTT against Bcl2l13	inactive: 0.231
CGGCCUGUUAAAUACGCUGTT against Slc39a4	inactive: -0.463
GACAAUACCAUCUCCCACUTT against Olfr347	inactive: -0.389
GGUUUGAAUGAAUUCAAGGTT against 6030452D12Rik	inactive: 0.785
GGGACAAGUUUCUUAACUGTT against F9	inactive: 0.865
GCAUGUAUGUGUCGAUAAUTT against Slc33a1	inactive: -0.468
GGACAUCUUCUCCGAUAUCTT against Tgfbr2	inactive: -1.94
GGACAUAGUCUGAGGCAAGTT against Ost4	inactive: -1.34
